Data as given in PubChem BioAssay AID504791 (Drosophila RNAi Screening Center, 2011).

- Assay: 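Factors in Argonaute-based small RNA production and activity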 (primary screen)
- System: Drosophila S2-derived reporter cells
- Reagents: long dsRNA against Drosophila genes, about 150-250 ng dsRNA per well (siRNA assay); about 80-120 ng (miRNA assay)
- Timing: about 5 days (siRNA assay); about 4 days (miRNA assay)
- Conditions: copper sulfate induction of reporters: 25 µM (siRNA assay); 200 mM stated (miRNA assay), 1-2 days before reading
- Measured: 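Dual luciferase assay: Renilla to firefly signal ratio in each well, scaled to the mean ratio of its plate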
- Active means: 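First-pass picks had plate-scaled ratios over 1.5 for the siRNA assay, over 1.6 for the miRNA assay, or under 0.6; two distinct dsRNAs had to score alike on retest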
In all, the deposit lists about 23,000 reagents; shown is a random part of those with a known target gene and a result. Over the whole deposit, 199 (0.86%) are marked active. 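Plate-scaled ratios behind the calls are not deposited; printed light signals are raw; many rows marked increased or decreased are still called inactive.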 The numbers tell different reagents against one gene apart. Not stated in the record: the direction of the score.

target	reagent no.	miRNA reporter change	stable assay Renilla, run 1 (luminescence)	stable assay firefly, run 1 (luminescence)	activity call
smog	1		6831	4.12e5	inactive
smog	2		6727	3.00e5	inactive
smog	3		3555	3.08e5	inactive
smog	4	reporter ratio lowered past the hit cutoff			inactive
Ir85a	1		7578	3.89e5	inactive
Dys	1		4783	4.64e5	inactive
Dys	2		3131	2.79e5	inactive
Dys	3		6996	2.61e5	inactive
Dys	4		6787	2.86e5	inactive
Dys	5		7348	4.10e5	inactive
Dys	6		6434	3.06e5	inactive
Dys	7		6931	3.04e5	inactive
CG9483	1		7968	1.27e6	inactive
CG42342	1		3631	3.54e5	inactive
CG42342	2	reporter ratio raised past the hit cutoff	3395	2.60e5	inactive
CG42342	3		6886	5.17e5	inactive
CG42342	4		6763	4.56e5	inactive
CG42342	5		6243	4.22e5	inactive
CG42342	6		8874	4.46e5	inactive
CG42342	7		5387	5.64e5	inactive
CG42342	8		4008	3.53e5	inactive
CG15317	1		6827	5.22e5	inactive
slpr	1		8118	5.79e5	inactive
slpr	2		5083	2.79e5	inactive
CG11403	1		7803	4.36e5	inactive
Stoml2	1		9411	1.95e6	inactive
CG14795	1		7112	5.62e5	inactive
Cyp4e2	1		7749	4.20e5	inactive
Cby	1		8495	3.78e5	inactive
CG7786	1		5991	3.35e5	inactive
Su(var)205	1		26547	3.32e5	inactive
CG15653	1		6662	4.60e5	inactive
g	1		6946	5.70e5	inactive
CG4301	1		5551	4.38e5	inactive
vig	1		5128	4.26e5	inactive
vig	2		17655	1.60e6	inactive
vig	3		9018	4.75e5	inactive
Ir7b	1		6554	3.70e5	inactive
CG33062	1		9718	6.34e5	inactive
Drl-2	1		5670	3.85e5	inactive
Drl-2	2		6472	5.50e5	inactive
Drl-2	3	reporter ratio lowered past the hit cutoff	5528	4.15e5	inactive
CG3868	1		9741	3.52e5	inactive
CG33178	1		4548	3.82e5	inactive
CG17782	1		6647	2.84e5	inactive
CG17782	2		4758	3.13e5	inactive
CG10340	1		7634	3.13e5	inactive
ymp	1		7867	5.52e5	inactive
ymp	2		6326	3.34e5	inactive
CG5611	1		7341	6.40e5	inactive
CalpB	1		8795	4.93e5	inactive
CG33500	1		4047	3.29e5	inactive
CG15764	1		5827	2.74e5	inactive
CG31937	1		13811	5.21e5	inactive
mmy	1		16399	8.59e5	inactive
CG14229	1		5584	4.94e5	inactive
CG14229	2		3747	2.93e5	inactive
